By UniProt entry, the sequences of proteins in these tests, tags left out.
UniProt Q09472: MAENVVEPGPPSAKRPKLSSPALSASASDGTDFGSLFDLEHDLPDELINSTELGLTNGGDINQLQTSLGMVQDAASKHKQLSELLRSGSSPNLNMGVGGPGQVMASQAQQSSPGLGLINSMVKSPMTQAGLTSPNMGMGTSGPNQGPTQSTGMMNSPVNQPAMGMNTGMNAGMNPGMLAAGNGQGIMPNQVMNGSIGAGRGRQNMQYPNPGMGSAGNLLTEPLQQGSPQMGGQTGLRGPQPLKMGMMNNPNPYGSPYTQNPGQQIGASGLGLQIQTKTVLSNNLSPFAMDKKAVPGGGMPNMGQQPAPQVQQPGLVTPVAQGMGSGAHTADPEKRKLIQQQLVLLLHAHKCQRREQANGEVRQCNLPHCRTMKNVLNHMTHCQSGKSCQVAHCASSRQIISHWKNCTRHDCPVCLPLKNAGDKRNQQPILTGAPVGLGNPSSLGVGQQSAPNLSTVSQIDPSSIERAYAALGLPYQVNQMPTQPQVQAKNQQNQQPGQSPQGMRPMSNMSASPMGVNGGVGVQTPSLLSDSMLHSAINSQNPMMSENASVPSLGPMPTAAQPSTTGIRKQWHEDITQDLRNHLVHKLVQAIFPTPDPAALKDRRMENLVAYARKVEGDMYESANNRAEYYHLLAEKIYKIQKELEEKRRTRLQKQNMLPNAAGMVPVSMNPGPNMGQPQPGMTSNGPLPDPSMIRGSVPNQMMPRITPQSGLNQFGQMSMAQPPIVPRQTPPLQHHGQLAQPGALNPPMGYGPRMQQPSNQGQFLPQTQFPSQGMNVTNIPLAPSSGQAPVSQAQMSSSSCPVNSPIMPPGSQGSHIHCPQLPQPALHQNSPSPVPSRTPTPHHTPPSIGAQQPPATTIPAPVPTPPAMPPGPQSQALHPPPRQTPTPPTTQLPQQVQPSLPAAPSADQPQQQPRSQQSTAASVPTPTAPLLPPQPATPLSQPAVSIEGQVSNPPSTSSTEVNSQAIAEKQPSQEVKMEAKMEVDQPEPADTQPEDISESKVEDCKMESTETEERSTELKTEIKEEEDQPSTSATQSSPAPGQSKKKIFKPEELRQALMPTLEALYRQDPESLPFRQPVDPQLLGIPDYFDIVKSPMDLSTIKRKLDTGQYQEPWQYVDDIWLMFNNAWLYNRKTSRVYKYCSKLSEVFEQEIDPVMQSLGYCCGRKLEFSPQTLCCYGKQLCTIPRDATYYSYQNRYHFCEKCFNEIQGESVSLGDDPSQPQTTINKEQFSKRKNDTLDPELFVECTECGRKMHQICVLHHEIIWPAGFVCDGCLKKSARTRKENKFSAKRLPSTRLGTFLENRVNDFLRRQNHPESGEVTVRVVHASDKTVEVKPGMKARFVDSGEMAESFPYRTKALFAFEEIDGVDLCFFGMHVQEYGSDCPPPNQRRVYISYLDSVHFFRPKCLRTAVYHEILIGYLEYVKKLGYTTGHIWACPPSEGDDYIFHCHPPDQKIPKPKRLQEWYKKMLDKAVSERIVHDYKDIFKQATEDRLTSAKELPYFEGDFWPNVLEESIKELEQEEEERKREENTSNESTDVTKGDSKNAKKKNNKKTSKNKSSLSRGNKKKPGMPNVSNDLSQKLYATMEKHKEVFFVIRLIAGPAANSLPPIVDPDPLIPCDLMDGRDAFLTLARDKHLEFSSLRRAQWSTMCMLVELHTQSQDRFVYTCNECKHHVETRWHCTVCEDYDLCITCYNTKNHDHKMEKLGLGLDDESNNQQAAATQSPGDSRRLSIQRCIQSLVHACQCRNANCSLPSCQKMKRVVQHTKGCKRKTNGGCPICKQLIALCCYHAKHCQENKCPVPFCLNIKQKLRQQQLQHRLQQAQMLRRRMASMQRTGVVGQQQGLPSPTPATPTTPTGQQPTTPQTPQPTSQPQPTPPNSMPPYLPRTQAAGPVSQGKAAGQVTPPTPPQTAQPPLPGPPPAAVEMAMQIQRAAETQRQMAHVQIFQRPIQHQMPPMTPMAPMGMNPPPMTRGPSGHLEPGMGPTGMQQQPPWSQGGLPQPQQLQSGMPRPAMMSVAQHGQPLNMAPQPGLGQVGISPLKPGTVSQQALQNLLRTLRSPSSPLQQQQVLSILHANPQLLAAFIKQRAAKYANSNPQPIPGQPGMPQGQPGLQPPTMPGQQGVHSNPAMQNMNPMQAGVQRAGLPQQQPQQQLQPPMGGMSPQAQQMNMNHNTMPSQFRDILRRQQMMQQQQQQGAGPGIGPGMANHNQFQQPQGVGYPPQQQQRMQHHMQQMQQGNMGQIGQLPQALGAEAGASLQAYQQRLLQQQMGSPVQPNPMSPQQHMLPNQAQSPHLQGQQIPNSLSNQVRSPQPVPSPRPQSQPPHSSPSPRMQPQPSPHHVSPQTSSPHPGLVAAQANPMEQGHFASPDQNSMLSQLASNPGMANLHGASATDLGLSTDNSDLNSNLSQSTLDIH

In publication PMC8191996:

Molecular target: endogenous P300 (human (endogenous; cell line not named, all cell lines of the paper are human)) (UniProt Q09472)
Test: co-IP; […]; antibody 12 h at 4°C, […]

binding: binds
Substance: endogenous NEDD4 (from UniProt P46934-4) (enzyme)

No constants are given. Whether binding was seen depends on the method and setting. In cells and extracts the contact can be indirect. Binding can be weak; no strength is given.
